# Data from patent US20170166886A1.
# Results are given in words; binding and its absence hold for the method and conditions named. Some entries that bind do so weakly or less than the wild type.
# Target: Streptavidin (UniProt P22629)
# Assay: phage display panning against streptavidin, Sanger sequencing of single clones
row,Binder,binding
1,APYHPMDIHPCRHPQYPTDC [SEQ ID NO 18],binds
2,RMGEIDGGKFCHPQRDKCTN [SEQ ID NO 27],binds
3,AEWETHDTFDNHPQVEEMRD [SEQ ID NO 28],binds
4,RMGEIDGGKFCHPQRDKCTN [SEQ ID NO 29],binds
5,YDDCHPMNPSQCLPPQFGES [SEQ ID NO 19],binds
6,PIVKYITFDPFDDCHPQVPC [SEQ ID NO 20],binds
7,IQPCHPQVWDGRCNVLNHQG [SEQ ID NO 21],binds
8,GRDCHPQFNGMCLMLDRARN [SEQ ID NO 22],binds
9,NPHDMTANESQCHPQFGACK [SEQ ID NO 23],binds
10,HAFSWEQDNLPCHPQFGECN [SEQ ID NO 24],binds
11,DRSVESDKHEPACHPQYGKC [SEQ ID NO 25],binds
12,KNWGVPMNMDCHPMCAKCHE [SEQ ID NO 26],binds

# The next lines start with the values.
row,binding,Binder
1,binds,VGECHPQGGLPMGMCEYQDP [SEQ ID NO 30]
2,binds,SDMCHPQSGAYCYWPSHVDC [SEQ ID NO 31]
3,binds,NPDMPARTLHCHPMGSREKC [SEQ ID NO 32]
4,binds,AETPGWGQMTPMFCHPQNRC [SEQ ID NO 33]
5,binds,HAFSWEQDNLPCHPQFGECN [SEQ ID NO 34]
6,binds,EPNVMPNPWTKCHPMRDKCQ [SEQ ID NO 36]
7,binds,PFQCHPQNGPCMYEAVPKPN [SEQ ID NO 37]
8,binds,FWKCHPQFGQCHEGMEGDKY [SEQ ID NO 38]
9,binds,GRECHPQFETDQSVLGQCWP [SEQ ID NO 39]
10,binds,AVGDHPQGPHDSMHLLESDR [SEQ ID NO 40]
